Laboratory results from the supplement of paper PMC8728848.
The list shows a part of the results.

Columns and labels:
Assay in all cases: glycan array binding signal (z-score within array); higher = stronger binding
Conditions in all cases: glycan notation: IUPAC condensed, linker removed
[1] = target: Gal(b1-4)GlcNAc(b1-3)Gal(b1-4)GlcNAc(b1-3)Gal(b1-4)GlcNAc(b1-3)Gal(b1-4)GlcNAc(b1-2)Man(a1-3)[Gal(b1-4)GlcNAc(b1-3)Gal(b1-4)GlcNAc(b1-3)Gal(b1-4)GlcNAc(b1-3)Gal(b1-4)GlcNAc(b1-2)Man(a1-6)]Man(b1-4)GlcNAc(b1-4)[Fuc(a1-6)]GlcNAc
Method in brief: (§1)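 The Consortium for Functional Glycomics database supplied 3228 glycan arrays, of which those lacking an available protein sequence were dropped. The binding signal, a within-array Z-score, was averaged across arrays of the same protein sequence and across linkers. Negative scores can be read as non-binding.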

[2] = target: Gal(b1-4)GlcNAc(b1-3)Gal(b1-4)GlcNAc(b1-3)Gal(b1-4)GlcNAc(b1-3)Gal(b1-4)GlcNAc(b1-2)[Gal(b1-4)GlcNAc(b1-3)Gal(b1-4)GlcNAc(b1-3)Gal(b1-4)GlcNAc(b1-3)Gal(b1-4)GlcNAc(b1-6)]Man(a1-6)[Gal(b1-4)GlcNAc(b1-3)Gal(b1-4)GlcNAc(b1-3)Gal(b1-4)GlcNAc(b1-3)Gal(b1-4)GlcNAc(b1-2)Man(a1-3)]Man(b1-4)GlcNAc(b1-4)[Fuc(a1-6)]GlcNAc
Method in brief: as §1

[3] = target: Gal(b1-4)GlcNAc(b1-3)Gal(b1-4)GlcNAc(b1-3)Gal(b1-4)GlcNAc(b1-3)Gal(b1-4)GlcNAc(b1-3)Gal(b1-4)GlcNAc(b1-2)Man(a1-3)[Gal(b1-4)GlcNAc(b1-3)Gal(b1-4)GlcNAc(b1-3)Gal(b1-4)GlcNAc(b1-3)Gal(b1-4)GlcNAc(b1-3)Gal(b1-4)GlcNAc(b1-2)Man(a1-6)]Man(b1-4)GlcNAc(b1-4)GlcNAc
Method in brief: as §1

[4] = target: Gal(b1-4)GlcNAc(b1-3)Gal(b1-4)GlcNAc(b1-3)Gal(b1-4)GlcNAc(b1-3)Gal(b1-4)GlcNAc(b1-3)Gal(b1-4)GlcNAc(b1-2)Man(a1-3)[Gal(b1-4)GlcNAc(b1-3)Gal(b1-4)GlcNAc(b1-3)Gal(b1-4)GlcNAc(b1-3)Gal(b1-4)GlcNAc(b1-3)Gal(b1-4)GlcNAc(b1-2)Man(a1-6)]Man(b1-4)GlcNAc(b1-4)[Fuc(a1-6)]GlcNAc
Method in brief: as §1

[5] = target: Gal(b1-4)GlcNAc(b1-3)Gal(b1-4)GlcNAc(b1-3)Gal(b1-4)GlcNAc(b1-3)Gal(b1-4)GlcNAc(b1-3)Gal(b1-4)GlcNAc(b1-2)[Gal(b1-4)GlcNAc(b1-3)Gal(b1-4)GlcNAc(b1-3)Gal(b1-4)GlcNAc(b1-3)Gal(b1-4)GlcNAc(b1-3)Gal(b1-4)GlcNAc(b1-6)]Man(a1-6)[Gal(b1-4)GlcNAc(b1-3)Gal(b1-4)GlcNAc(b1-3)Gal(b1-4)GlcNAc(b1-3)Gal(b1-4)GlcNAc(b1-3)Gal(b1-4)GlcNAc(b1-2)Man(a1-3)]Man(b1-4)GlcNAc(b1-4)[Fuc(a1-6)]GlcNAc
Method in brief: as §1

[6] = target: Gal(b1-4)GlcNAc(b1-3)Gal(b1-4)GlcNAc(b1-3)Gal(b1-4)GlcNAc(b1-3)Gal(b1-4)GlcNAc(b1-3)Gal(b1-4)GlcNAc(b1-3)Gal(b1-4)GlcNAc(b1-2)Man(a1-3)[Gal(b1-4)GlcNAc(b1-3)Gal(b1-4)GlcNAc(b1-3)Gal(b1-4)GlcNAc(b1-3)Gal(b1-4)GlcNAc(b1-3)Gal(b1-4)GlcNAc(b1-3)Gal(b1-4)GlcNAc(b1-2)Man(a1-6)]Man(b1-4)GlcNAc(b1-4)GlcNAc
Method in brief: as §1

[7] = target: Gal(b1-4)GlcNAc(b1-3)Gal(b1-4)GlcNAc(b1-3)GalNAc
Method in brief: as §1

[8] = target: Gal(b1-4)GlcNAc(b1-3)Gal(b1-4)GlcNAc(b1-3)[Gal(b1-4)GlcNAc(b1-3)Gal(b1-4)GlcNAc(b1-6)]GalNAc
Method in brief: as §1

[9] = target: Gal(b1-4)GlcNAc(b1-3)Gal(b1-4)GlcNAc(b1-6)[Gal(b1-3)]GalNAc
Method in brief: as §1

[10] = target: Gal(b1-4)GlcNAc(b1-3)Gal(b1-4)[Fuc(a1-3)]GlcNAc(b1-3)Gal(b1-4)[Fuc(a1-3)]GlcNAc
Method in brief: as §1

[11] = target: Gal(b1-4)GlcNAc(b1-3)GalNAc
Method in brief: as §1

[12] = target: Gal(b1-4)GlcNAc(b1-3)[Fuc(a1-3)GlcNAc(b1-6)]Gal(b1-4)Glc
Method in brief: as §1

[13] = target: Gal(b1-4)GlcNAc(b1-3)[Gal(b1-4)GlcNAc(b1-6)]Gal(b1-4)GlcNAc
Method in brief: as §1

[14] = target: Gal(b1-4)GlcNAc(b1-3)[GlcNAc(b1-6)]Gal(b1-4)GlcNAc
Method in brief: as §1

[15] = target: Gal(b1-4)GlcNAc(b1-6)Gal(b1-4)GlcNAc
Method in brief: as §1

[16] = target: Gal(b1-4)GlcNAc(b1-6)GalNAc
Method in brief: as §1

[17] = target: Gal(b1-4)GlcNAc(b1-6)[Gal(b1-3)]GalNAc
Method in brief: as §1

[18] = target: Gal(b1-4)GlcNAc(b1-6)[Gal(b1-4)GlcNAc(b1-3)]GalNAc
Method in brief: as §1

Gal(b1-4)GlcNAc6P = target: Gal(b1-4)GlcNAc6P
Method in brief: as §1

Gal(b1-6)Gal = target: Gal(b1-6)Gal
Method in brief: as §1

Gal3S(b1-3)GalNAc = target: Gal3S(b1-3)GalNAc
Method in brief: as §1

Gal3S(b1-3)GlcNAc = target: Gal3S(b1-3)GlcNAc
Method in brief: as §1

[19] = target: Gal3S(b1-3)[Fuc(a1-4)]GlcNAc
Method in brief: as §1

Gal3S(b1-4)Glc = target: Gal3S(b1-4)Glc
Method in brief: as §1

Gal3S(b1-4)Glc6S = target: Gal3S(b1-4)Glc6S
Method in brief: as §1

Gal3S(b1-4)GlcNAc = target: Gal3S(b1-4)GlcNAc
Method in brief: as §1

[20] = target: Gal3S(b1-4)[Fuc(a1-3)]Glc6S
Method in brief: as §1

[21] = target: Gal3S(b1-4)[Fuc(a1-3)]GlcNAc
Method in brief: as §1

[22] = target: Gal3S(b1-4)[Fuc(a1-3)]GlcNAc6S
Method in brief: as §1

Gal3S4S(b1-4)GlcNAc = target: Gal3S4S(b1-4)GlcNAc
Method in brief: as §1

Gal3S6S(b1-4)GlcNAc = target: Gal3S6S(b1-4)GlcNAc
Method in brief: as §1

Gal3S6S(b1-4)GlcNAc6S = target: Gal3S6S(b1-4)GlcNAc6S
Method in brief: as §1

Gal4S(b1-4)GlcNAc = target: Gal4S(b1-4)GlcNAc
Method in brief: as §1

Gal4S6S(b1-4)GlcNAc = target: Gal4S6S(b1-4)GlcNAc
Method in brief: as §1

Gal6P(b1-4)GlcNAc = target: Gal6P(b1-4)GlcNAc
Method in brief: as §1

Gal6S(b1-3)GlcNAc = target: Gal6S(b1-3)GlcNAc
Method in brief: as §1

Gal6S(b1-3)GlcNAc6S = target: Gal6S(b1-3)GlcNAc6S
Method in brief: as §1

Gal6S(b1-4)Glc = target: Gal6S(b1-4)Glc
Method in brief: as §1

B1: Clec39 (Caenorhabditis elegans) (protein)
chain: MTSFYDNSSSSSKPVPLKTSRAQKIQILIFDNWKLILYGAISTLILVLAIMFSTLFFALPAANCDENSEPTKYYTTNAEITTTITTTNQKTTSTASSHLTTISSSATQIYSESSSSSTSQSTFTQSPPEISTTTIAPSDFSCQHGFTLVNNKCWKLVTSNQARPDADKICNGYGGATLFSIKSEQDNRAMIHFVKGQDIDFLWSGLLCSAGEPISCIWDIENGSTANYSNFADGFPNIVYGNCVYFITSGDEAGQWGNEQCGQVMNFVCELPATFQGKDGCKNNYEKSCYLRFDLNLTVPQAQNFCLEKCANLVSIHSANEVRFIMTIYDFIGEILIGALAPAQDFIYWLDGTPANYNNLKFFYNSTCVHMTVAPGMQNVGKWFTRFCTETGKFLCKRSIKNSCT
glycan array binding signal (z-score) [1]: 1.98 | glycan array binding signal (z-score) [2]: -0.037 | glycan array binding signal (z-score) [3]: 3.63 | glycan array binding signal (z-score) [4]: 1.01 | glycan array binding signal (z-score) [5]: 1.56 | glycan array binding signal (z-score) [6]: -0.636 | glycan array binding signal (z-score) [7]: 0.853 | glycan array binding signal (z-score) [8]: -0.36 | glycan array binding signal (z-score) [9]: 0.593 | glycan array binding signal (z-score) [10]: -0.298 | glycan array binding signal (z-score) [11]: 0.504 | glycan array binding signal (z-score) [12]: -0.645 | glycan array binding signal (z-score) [13]: -0.864 | glycan array binding signal (z-score) [14]: -0.859 | glycan array binding signal (z-score) [15]: -1.37 | glycan array binding signal (z-score) [16]: -0.057 | glycan array binding signal (z-score) [17]: -0.112 | glycan array binding signal (z-score) [18]: 5.43 | glycan array binding signal (z-score) (Gal(b1-4)GlcNAc6P): -0.183 | glycan array binding signal (z-score) (Gal(b1-6)Gal): -0.588 | glycan array binding signal (z-score) (Gal3S(b1-3)GalNAc): -0.265 | glycan array binding signal (z-score) (Gal3S(b1-3)GlcNAc): -0.524 | glycan array binding signal (z-score) [19]: -0.33 | glycan array binding signal (z-score) (Gal3S(b1-4)Glc): 0.229 | glycan array binding signal (z-score) (Gal3S(b1-4)Glc6S): 0.293 | glycan array binding signal (z-score) (Gal3S(b1-4)GlcNAc): -0.993 | glycan array binding signal (z-score) [20]: 0.923 | glycan array binding signal (z-score) [21]: 0.377 | glycan array binding signal (z-score) [22]: 0.809 | glycan array binding signal (z-score) (Gal3S4S(b1-4)GlcNAc): -0.572 | glycan array binding signal (z-score) (Gal3S6S(b1-4)GlcNAc): 0.328 | glycan array binding signal (z-score) (Gal3S6S(b1-4)GlcNAc6S): 0.426 | glycan array binding signal (z-score) (Gal4S(b1-4)GlcNAc): -1.02 | glycan array binding signal (z-score) (Gal4S6S(b1-4)GlcNAc): -0.462 | glycan array binding signal (z-score) (Gal6P(b1-4)GlcNAc): -0.018 | glycan array binding signal (z-score) (Gal6S(b1-3)GlcNAc): 0.971 | glycan array binding signal (z-score) (Gal6S(b1-3)GlcNAc6S): 0.39 | glycan array binding signal (z-score) (Gal6S(b1-4)Glc): -0.342
